Laboratory results: the supplement of paper PMC6411743
± gives the standard deviation of the averaged measurements. This is one part of the list.

Amino acid sequences for entries named in this document (tags omitted). A change or cut given only in a name is not applied to a line headed by its entry.
UniProt Q9H4G4: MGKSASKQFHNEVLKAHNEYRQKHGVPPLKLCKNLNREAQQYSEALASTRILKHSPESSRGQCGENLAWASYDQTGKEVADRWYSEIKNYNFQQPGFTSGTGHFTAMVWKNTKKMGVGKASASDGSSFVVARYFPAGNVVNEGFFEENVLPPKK
UniProt Q9NPF4: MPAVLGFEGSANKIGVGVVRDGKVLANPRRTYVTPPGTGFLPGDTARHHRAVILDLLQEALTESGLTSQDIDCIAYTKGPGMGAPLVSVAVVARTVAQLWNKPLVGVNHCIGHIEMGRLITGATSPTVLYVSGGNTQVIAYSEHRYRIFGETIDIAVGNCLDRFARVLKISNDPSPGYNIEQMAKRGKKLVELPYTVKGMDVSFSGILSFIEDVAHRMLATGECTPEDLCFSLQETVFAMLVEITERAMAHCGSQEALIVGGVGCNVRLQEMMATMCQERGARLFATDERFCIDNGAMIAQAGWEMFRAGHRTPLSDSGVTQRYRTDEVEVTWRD
UniProt Q9NSI2: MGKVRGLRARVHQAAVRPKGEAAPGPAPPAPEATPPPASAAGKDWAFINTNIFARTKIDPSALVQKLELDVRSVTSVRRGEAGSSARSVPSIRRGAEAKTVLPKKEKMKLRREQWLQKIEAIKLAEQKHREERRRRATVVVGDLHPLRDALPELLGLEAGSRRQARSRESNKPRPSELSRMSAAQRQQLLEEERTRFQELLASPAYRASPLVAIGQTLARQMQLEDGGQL
UniProt Q9H9A6: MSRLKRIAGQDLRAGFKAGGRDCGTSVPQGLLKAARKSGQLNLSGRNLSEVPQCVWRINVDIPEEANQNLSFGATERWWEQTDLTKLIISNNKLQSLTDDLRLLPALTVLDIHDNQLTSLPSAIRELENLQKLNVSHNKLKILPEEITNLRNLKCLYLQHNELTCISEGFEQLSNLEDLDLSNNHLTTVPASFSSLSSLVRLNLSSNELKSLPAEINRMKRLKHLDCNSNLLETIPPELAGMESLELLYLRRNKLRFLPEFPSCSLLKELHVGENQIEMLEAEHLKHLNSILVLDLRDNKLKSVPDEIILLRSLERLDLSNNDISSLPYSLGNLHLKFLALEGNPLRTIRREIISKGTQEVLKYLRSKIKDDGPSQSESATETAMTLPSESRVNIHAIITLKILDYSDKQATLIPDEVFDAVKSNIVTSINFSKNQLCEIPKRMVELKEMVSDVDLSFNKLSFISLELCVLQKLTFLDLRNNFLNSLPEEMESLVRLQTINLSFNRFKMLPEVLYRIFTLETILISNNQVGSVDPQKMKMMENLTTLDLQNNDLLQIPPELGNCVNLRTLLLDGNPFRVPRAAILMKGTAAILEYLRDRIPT
UniProt Q9H3N1: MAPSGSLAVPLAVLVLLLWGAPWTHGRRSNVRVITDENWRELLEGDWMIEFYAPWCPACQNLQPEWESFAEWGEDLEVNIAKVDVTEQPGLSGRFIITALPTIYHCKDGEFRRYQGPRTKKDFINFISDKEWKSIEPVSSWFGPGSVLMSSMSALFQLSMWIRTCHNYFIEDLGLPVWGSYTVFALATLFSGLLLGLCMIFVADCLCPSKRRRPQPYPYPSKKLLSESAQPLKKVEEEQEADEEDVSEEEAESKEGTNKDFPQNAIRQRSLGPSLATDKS

Compound: Nc1nc2c(ncn2[C@@H]2O[C@H](COP(=O)(O)OP(=O)(O)OP(=O)(O)O)[C@@H](O)[C@H]2O)c(=O)[nH]1 [guanosine triphosphate]
Experiment: NP40-soluble protein abundance relative to vehicle (solubility fold change) (ratio); higher = more soluble protein in presence of GTP
Procedure: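 Solubility proteome profiling in Jurkat crude lysate. Lysate was treated with Mg-GTP (0.1-10 mM) for 10 min at room temperature and 3 min at 37 °C, then solubilised with 0.8% NP40 and benzonase, followed by ultracentrifugation. Proteins were quantified by TMT10 LC-MS/MS; the value is the NP40-soluble abundance relative to the NP40-processed vehicle, from 3 independent experiments.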

**Q.** Which results are given for UniProt Q9H4G4 and related entries?
**A.** NP40-soluble protein abundance (concentration: 0.1mM): 0.89 ± 0.069; NP40-soluble protein abundance (concentration: 0.5mM): 0.903 ± 0.1; NP40-soluble protein abundance (concentration: 1mM): 0.921 ± 0.046; NP40-soluble protein abundance (concentration: 2mM): 0.887 ± 0.087; NP40-soluble protein abundance (concentration: 4mM): 0.89 ± 0.046; NP40-soluble protein abundance (concentration: 6mM): 0.9 ± 0.11; NP40-soluble protein abundance (concentration: 8mM): 0.892 ± 0.07; NP40-soluble protein abundance (concentration: 10mM): 0.884 ± 0.11

**Q.** For OSGEP (UniProt Q9NPF4), which NP40-soluble protein abundance (concentration: 0.1mM) is on record?
**A.** Its NP40-soluble protein abundance is 1.07 ± 0.042.

**Q.** And the NP40-soluble protein abundance (concentration: 0.5mM)?
**A.** Its NP40-soluble protein abundance is 1.02 ± 0.043.

**Q.** What about the NP40-soluble protein abundance (concentration: 1mM) of the same target?
**A.** The NP40-soluble protein abundance was 0.963 ± 0.018.

**Q.** And the NP40-soluble protein abundance (concentration: 2mM)?
**A.** The NP40-soluble protein abundance was 0.937 ± 0.054.

**Q.** And the NP40-soluble protein abundance (concentration: 4mM)?
**A.** Its NP40-soluble protein abundance is 0.94 ± 0.063.

**Q.** What about the NP40-soluble protein abundance (concentration: 6mM) of the same target?
**A.** The NP40-soluble protein abundance was 0.915 ± 0.039.

**Q.** What about the NP40-soluble protein abundance (concentration: 8mM) of the same target?
**A.** Its NP40-soluble protein abundance is 0.925 ± 0.055.

**Q.** And the NP40-soluble protein abundance (concentration: 10mM)?
**A.** Its NP40-soluble protein abundance is 0.879 ± 0.059.

**Q.** UniProt Q9NSI2 and related entries was tested. Which NP40-soluble protein abundance (concentration: 0.1mM) did it give?
**A.** Its NP40-soluble protein abundance is 0.959 ± 0.068.

**Q.** What about the NP40-soluble protein abundance (concentration: 0.5mM) of the same target?
**A.** Its NP40-soluble protein abundance is 0.852 ± 0.074.

**Q.** And the NP40-soluble protein abundance (concentration: 1mM)?
**A.** Its NP40-soluble protein abundance is 0.965 ± 0.042.

**Q.** And the NP40-soluble protein abundance (concentration: 2mM)?
**A.** Its NP40-soluble protein abundance is 0.949 ± 0.076.

**Q.** What about the NP40-soluble protein abundance (concentration: 4mM) of the same target?
**A.** The NP40-soluble protein abundance was 0.893 ± 0.054.

**Q.** And the NP40-soluble protein abundance (concentration: 6mM)?
**A.** Its NP40-soluble protein abundance is 0.876 ± 0.033.

**Q.** What about the NP40-soluble protein abundance (concentration: 8mM) of the same target?
**A.** Its NP40-soluble protein abundance is 0.844 ± 0.1.

**Q.** What about the NP40-soluble protein abundance (concentration: 10mM) of the same target?
**A.** The NP40-soluble protein abundance was 0.921 ± 0.063.

**Q.** For LRRC40 (UniProt Q9H9A6), which NP40-soluble protein abundance (concentration: 0.1mM) is on record?
**A.** Its NP40-soluble protein abundance is 0.983 ± 0.024.

**Q.** What about the NP40-soluble protein abundance (concentration: 0.5mM) of the same target?
**A.** The NP40-soluble protein abundance was 1 ± 0.035.

**Q.** What about the NP40-soluble protein abundance (concentration: 1mM) of the same target?
**A.** Its NP40-soluble protein abundance is 0.944 ± 0.033.

**Q.** What about the NP40-soluble protein abundance (concentration: 2mM) of the same target?
**A.** Its NP40-soluble protein abundance is 0.945 ± 0.052.

**Q.** And the NP40-soluble protein abundance (concentration: 4mM)?
**A.** Its NP40-soluble protein abundance is 0.935 ± 0.042.

**Q.** What about the NP40-soluble protein abundance (concentration: 6mM) of the same target?
**A.** Its NP40-soluble protein abundance is 0.908 ± 0.046.

**Q.** And the NP40-soluble protein abundance (concentration: 8mM)?
**A.** The NP40-soluble protein abundance was 0.894 ± 0.035.

**Q.** And the NP40-soluble protein abundance (concentration: 10mM)?
**A.** Its NP40-soluble protein abundance is 0.897 ± 0.067.

**Q.** Which results are given for UniProt Q9H3N1?
**A.** NP40-soluble protein abundance (concentration: 0.1mM): 0.957 ± 0.055; NP40-soluble protein abundance (concentration: 0.5mM): 0.947 ± 0.043; NP40-soluble protein abundance (concentration: 1mM): 0.935 ± 0.04; NP40-soluble protein abundance (concentration: 2mM): 0.871 ± 0.062; NP40-soluble protein abundance (concentration: 4mM): 0.858 ± 0.071; NP40-soluble protein abundance (concentration: 6mM): 0.878 ± 0.091; NP40-soluble protein abundance (concentration: 8mM): 0.885 ± 0.053; NP40-soluble protein abundance (concentration: 10mM): 0.859 ± 0.065
